No constants are given. Whether binding was seen depends on the method and setting. Binding seen in cells or lysates may run through a third protein. Some entries that bind do so weakly or less than the wild type. Tags and fused reporters may be left off the sequences shown.

For assay [1], the target named is T1, UGP2-FLAG (human) (UniProt Q16851).
T1 sequence: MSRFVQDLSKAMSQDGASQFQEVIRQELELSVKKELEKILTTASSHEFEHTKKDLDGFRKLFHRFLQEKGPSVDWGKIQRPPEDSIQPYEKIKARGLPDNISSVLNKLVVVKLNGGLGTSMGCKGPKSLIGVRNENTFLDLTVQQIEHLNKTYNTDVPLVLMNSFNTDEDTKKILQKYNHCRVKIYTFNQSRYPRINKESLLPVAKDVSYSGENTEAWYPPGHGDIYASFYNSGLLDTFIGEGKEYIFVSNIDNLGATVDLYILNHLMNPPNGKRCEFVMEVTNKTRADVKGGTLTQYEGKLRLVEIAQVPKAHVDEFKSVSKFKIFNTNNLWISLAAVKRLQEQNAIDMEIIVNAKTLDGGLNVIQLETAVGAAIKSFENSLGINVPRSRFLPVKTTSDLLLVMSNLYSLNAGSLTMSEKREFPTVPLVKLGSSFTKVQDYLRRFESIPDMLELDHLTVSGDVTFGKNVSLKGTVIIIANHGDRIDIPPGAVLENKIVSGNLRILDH
The assay is described as follows: co-IP; HA-p53 and UGP2-FLAG overexpressed in HepG2 p53KO cells, 24 h growth medium, precipitated with FLAG beads; Co-IP buffer 25 mM Tris-HCl, 150 mM NaCl, 1 mM EDTA, 1% IGEPAL, 5% glycerol, pH 7.4.

Assay [2] has as its target T1, UGP2-FLAG (human). The assay is described as follows: co-IP; HA-p53 and UGP2-FLAG overexpressed in HepG2 p53KO cells, 24 h starvation medium, precipitated with FLAG beads; Co-IP buffer 25 mM Tris-HCl, 150 mM NaCl, 1 mM EDTA, 1% IGEPAL, 5% glycerol, pH 7.4.

For the substance HA-p53 (from UniProt P04637 1-393), the binding entry is reported as “no binding (condition: cells in growth medium)” with UGP2-FLAG (human) [1] and “binds” with UGP2-FLAG (human) [2].

The record behind these values is publication PMC9151573.
